The list is a part of this screen's results and no random one: it gathers tests that were run many times, whatever their T/C, doses with no T/C, and many T/C values between a quarter and a half above the control. Other doses and runs of a compound stand elsewhere. T/C gives the treated animals as a percentage of the vehicle group. Some entries give survivors of the animals treated and no T/C: the source files T/C as zero there, which appears to mark a toxic dose or a test without result, not a measured value. Some doses without a T/C left all or most animals alive at the check, yet need not have been tolerated: the source hardly ever lists a survival T/C far under the control, and the zero likely stands for such cases as well. Counts of survivors are from the toxicity check (mostly the fifth day) where no day follows; animals may have died later. Schedule codes are those of the source, read here as Q, the interval in days (D) or hours (H), X, the number of doses. Some schedules carry Z or #; the key to these is not given. Where survival is the endpoint, this PubChem deposit counts one and a half times the control or more as active, and values a quarter to a half above the control carry no call in these data; other NCI protocols may use other cut-offs. Some doses were run more than once; their values stand side by side, smallest first. Some T/C values carry the count of animals alive at the toxicity check (mostly the fifth day); where none is given, no animal had died by that day.
Test system: L1210 leukemia ip in BDF1 mice, survival T/C
Assay: NCI In Vivo Anticancer Drug Screen. Data for tumor model L1210 Leukemia (intraperitoneal) in B6D2F1 (BDF1) mice
Conditions: T/C endpoint: mean survival time, higher T/C = longer survival
[1] = dose: 100.0 mg/kg/injection, schedule: Q01DX001 (ip), vehicle: saline
[2] = dose: 150.0 mg/kg/injection, schedule: Q01DX001 (ip), vehicle: saline
[3] = dose: 200.0 mg/kg/injection, schedule: Q01DX001 (ip), vehicle: saline
[4] = dose: 400.0 mg/kg/injection, schedule: Q01DX001 (ip), vehicle: saline
[5] = dose: 300.0 mg/kg/injection, schedule: Q01DX001 (ip), vehicle: saline
[6] = dose: 400.0 mg/kg/injection, schedule: Q01DX009 (ip), vehicle: saline

SMILES: Cc1cc(C(C(N)=O)c2ccccc2)ccc1N(CCCl)CCCl (stereo unspecified)
- T/C (dose: 7.5 mg/kg/injection, schedule: Q01DX015 (ip), vehicle: carboxymethylcellulose (CMC)): 128 % of control
- T/C (dose: 8.0 mg/kg/injection, schedule: Q01DX009 (ip), vehicle: carboxymethylcellulose (CMC)): 131 % of control
- T/C (dose: 10.0 mg/kg/injection, schedule: Q01DX009 (ip), vehicle: Klucel (hydroxypropylcellulose) (HPC)): 131 % of control
- T/C (dose: 10.0 mg/kg/injection, schedule: Q04DX003 (ip), vehicle: acetone): 129 % of control
- T/C (dose: 15.0 mg/kg/injection, schedule: Q01DX015 (ip), vehicle: carboxymethylcellulose (CMC)): 139 % of control
- T/C (dose: 16.0 mg/kg/injection, schedule: Q01DX009 (ip), vehicle: carboxymethylcellulose (CMC)): 127 % of control
- T/C (dose: 16.5 mg/kg/injection, schedule: Q04DX003 (ip), vehicle: acetone): 126 % of control
- T/C (dose: 22.5 mg/kg/injection, schedule: Q01DX015 (ip), vehicle: carboxymethylcellulose (CMC)): 125 % of control
- T/C (dose: 30.0 mg/kg/injection, schedule: Q01DX015 (ip), vehicle: carboxymethylcellulose (CMC)): 128 % of control
- T/C (dose: 32.0 mg/kg/injection, schedule: Q01DX009 (ip), vehicle: carboxymethylcellulose (CMC)): 143 % of control
- T/C (dose: 33.0 mg/kg/injection, schedule: Q04DX003 (ip), vehicle: acetone): 129 [5 of 6 alive], 132, 138 % of control
- survivor count (dose: 60.0 mg/kg/injection, schedule: Q01DX015 (ip), vehicle: carboxymethylcellulose (CMC)): 6 of 6
- T/C (dose: 66.0 mg/kg/injection, schedule: Q01DX001 (ip), vehicle: saline): 129 % of control [4 of 6 alive]
- survivor count (dose: 75.0 mg/kg/injection, schedule: Q01DX009 (ip), vehicle: saline with Tween-80): 0 of 6
- survivor count (dose: 90.0 mg/kg/injection, schedule: Q01DX015 (ip), vehicle: carboxymethylcellulose (CMC)): 5 of 6
- T/C [1]: 130 % of control [5 of 6 alive]
- survivor count [1]: 3 of 6
- T/C (dose: 100.0 mg/kg/injection, schedule: Q04DX003 (ip), vehicle: acetone): 132 % of control
- survivor count (dose: 128.0 mg/kg/injection, schedule: Q01DX009 (ip), vehicle: carboxymethylcellulose (CMC)): 0 of 6
- T/C (dose: 133.4 mg/kg/injection, schedule: Q01DX001 (ip), vehicle: carboxymethylcellulose (CMC)): 129 % of control
- T/C [2]: 128 % of control
- survivor count [2]: 2 of 6
- survivor count (dose: 150.0 mg/kg/injection, schedule: Q01DX009 (ip), vehicle: saline with Tween-80): 0 of 6
- T/C (dose: 200.0 mg/kg/injection, schedule: Q01DX001 (ip), vehicle: carboxymethylcellulose (CMC)): 129 and 137 % of control
- survivor count [3]: 3 of 6
- survivor count (dose: 225.0 mg/kg/injection, schedule: Q04DX003 (ip), vehicle: acetone): 4 of 6
- survivor count (dose: 400.0 mg/kg/injection, schedule: Q01DX001 (ip), vehicle: carboxymethylcellulose (CMC)): 2 of 4
- survivor count [4]: 0 of 6

SMILES: CCC[CH2][Pb]([CH2]CCC)([O]C(C)=O)[O]C(C)=O
- survivor count (dose: 50.0 mg/kg/injection, schedule: Q01DX001 (ip), vehicle: saline): 0 of 4
- survivor count [1]: 0 of 4
- survivor count [3]: 0 of 4
- survivor count [4]: 0 of 4

SMILES: CS(=O)(=O)N(CC(=O)O)Cc1cccc(Br)c1
- survivor count (dose: 400.0 mg/kg/injection, schedule: Q01DX005 (ip), vehicle: other): 1 of 3

SMILES: Nc1nc(C=O)c(CCc2ccccc2)c(=O)[nH]1
- survivor count (dose: 400.0 mg/kg/injection, schedule: Q04DX003 (ip), vehicle: saline with Tween-80): 1 of 6

SMILES: COc1ccc(OC)c(C2(O)C=C(C)C(=O)C=C2C)c1 (stereo unspecified)
- survivor count (dose: 75.0 mg/kg/injection, schedule: Q01DX001 (ip), vehicle: Klucel (hydroxypropylcellulose) (HPC)): 6 of 6

SMILES: C[CH2][Ge]1([CH2]C)[CH2]CC2(C[CH2]1)NC(=O)N(CCCN(C)C)C2=O
- survivor count (dose: 400.0 mg/kg/injection, schedule: Q04DX002 (ip), vehicle: saline): 0 of 3

SMILES: NC(N)=N/N=C/c1nccc2ccccc12
- survivor count [3]: 2 of 4
- survivor count [4]: 0 of 4

SMILES: C=C(CC(N)=O)C(=O)O (tested in a mixture with another compound)
- T/C (dose: 175.0 mg/kg/injection, schedule: Q01DX009 (ip), vehicle: saline): 125 % of control
- T/C (dose: 177.0 mg/kg/injection, schedule: Q01DX001 (ip), vehicle: saline): 130 % of control
- T/C (dose: 177.0 mg/kg/injection, schedule: Q01DX009 (ip), vehicle: saline): 137 % of control
- T/C (dose: 400.0 mg/kg/injection, schedule: Q01DX001 (ip), vehicle: saline, evaluated on day 30): 127 % of control
- T/C (dose: 400.0 mg/kg/injection, schedule: Q01DX001 (ip), vehicle: saline, run until all animals had died): 127 % of control
- T/C (dose: 600.0 mg/kg/injection, schedule: Q01DX001 (ip), vehicle: saline, evaluated on day 30): 134 % of control
- T/C (dose: 600.0 mg/kg/injection, schedule: Q01DX001 (ip), vehicle: saline, run until all animals had died): 148 % of control
- survivor count (dose: 600.0 mg/kg/injection, schedule: Q01DX009 (ip), vehicle: saline): 1 of 6

SMILES: CS(=O)(=O)OCCNC[C@@H](O)[C@@H](O)CNCCOS(C)(=O)=O
- T/C (dose: 3.9 mg/kg/injection, schedule: Q01DX001 (ip), vehicle: saline): 128 and 134 % of control
- T/C (dose: 6.5 mg/kg/injection, schedule: Q01DX001 (ip), vehicle: saline): 144 % of control
- T/C (dose: 10.8 mg/kg/injection, schedule: Q01DX001 (ip), vehicle: saline): 136 and 138 % of control
- T/C (dose: 18.0 mg/kg/injection, schedule: Q01DX001 (ip), vehicle: saline): 138 % of control
- survivor count (dose: 83.3 mg/kg/injection, schedule: Q01DX001 (ip), vehicle: saline): 8 of 8
- survivor count [1]: 6 of 8
- survivor count [3]: 0 of 6
- survivor count [4]: 0 of 6

SMILES: CC(/C=N/N(C)C)=N\N(C)C
- survivor count (dose: 400.0 mg/kg/injection, schedule: Q04DX003 (ip), vehicle: saline): 0 of 6

SMILES: C[Si](C)(O)CCl
- survivor count [2]: 0 of 6
- survivor count [5]: 2 of 6

SMILES: O=C1CCC(=O)C12CCNCC2
- survivor count [6]: 3 of 6

SMILES: Clc1ccc2c(c1)C(Br)c1cc(Cl)cc(Cl)c1-2 (stereo unspecified)
- survivor count (dose: 200.0 mg/kg/injection, schedule: Q01DX001 (ip), vehicle: acetone): 6 of 6
- survivor count (dose: 400.0 mg/kg/injection, schedule: Q01DX001 (ip), vehicle: acetone): 6 of 6

SMILES: S=C=NCc1ccccc1
- survivor count [5]: 0 of 6

SMILES: [N-]=[N+]=C1C(=O)NC(=O)N2C3CC(O)C(COC12)O3 (stereo unspecified)
- T/C (dose: 200.0 mg/kg/injection, schedule: Q01DX Z (ip), vehicle: saline): 125 % of control
- survivor count (dose: 300.0 mg/kg/injection, schedule: Q01DX Z (ip), vehicle: carboxymethylcellulose (CMC)): 3 of 6
- T/C (dose: 300.0 mg/kg/injection, schedule: Q01DX Z (ip), vehicle: saline): 125 % of control
- survivor count [6]: 5 of 6
- survivor count (dose: 450.0 mg/kg/injection, schedule: Q01DX Z (ip), vehicle: carboxymethylcellulose (CMC)): 0 of 6
- T/C (dose: 450.0 mg/kg/injection, schedule: Q01DX Z (ip), vehicle: saline): 125 and 139 % of control
- survivor count (dose: 675.0 mg/kg/injection, schedule: Q01DX Z (ip), vehicle: carboxymethylcellulose (CMC)): 0 of 6

SMILES: O=[N+]([O-])c1cc(Cl)c(Cl)cc1NCCCO
- survivor count (dose: 400.0 mg/kg/injection, schedule: Q01DX009 (ip), vehicle: acetone): 6 of 6

SMILES: COC1C=CC=CC=C1
- survivor count (dose: 75.0 mg/kg/injection, schedule: Q01DX001 (ip), vehicle: saline): 0 of 6
- survivor count [2]: 0 of 6
- survivor count [5]: 0 of 6

SMILES: CCC1(c2ccccc2)CCN(C)C1 (stereo unspecified)
- survivor count (dose: 150.0 mg/kg/injection, schedule: Q01DX001 (ip), vehicle: carboxymethylcellulose (CMC)): 0 of 6
- survivor count (dose: 300.0 mg/kg/injection, schedule: Q01DX001 (ip), vehicle: carboxymethylcellulose (CMC)): 0 of 6

SMILES: CC(=O)Nc1ccc(S(=O)(=O)NC(C)=O)cc1
- survivor count (dose: 200.0 mg/kg/injection, schedule: Q01DX009 (ip), vehicle: saline with Tween-80): 6 of 6

SMILES: O=C1OC2CCCCC2/C1=C/N1CCCCC1 (stereo unspecified)
- survivor count (dose: 25.0 mg/kg/injection, schedule: Q04DX002 (ip), vehicle: Klucel (hydroxypropylcellulose) (HPC)): 3 of 3

— PubChem BioAssay AID248 (DTP/NCI, 2004)
